# Some results were stated once for a whole list of compounds, not compound by compound.
# Tested on: Cobb root-lesion nematodes
# Assay: Test on Cobb root-lesion nematode (immersion treatment)
# Format: in vivo, Pratylenchus penetrans
# Conditions: final concentration 20 ppm, 25° C., after two days
substance,measurement,value
"2-fluoro-N-[2-[(2,2,3,3,-tetrafluoro-5-methyl-1,4-benzodioxan-6-yl)carbonyl]-2-propyl]benzamide [Compound No. 16-37]",motility inhibition ratio (%),not less than 70%
